Measurements reported in article PMC9839712.
No constants are given. Whether binding was seen depends on the method and setting. In cells and extracts the contact can be indirect. Some entries that bind do so weakly or less than the wild type. Where a sequence is shown, tags or fusion partners need not be part of it.

Target: T1, FLAG-LRIG3 (UniProt Q6UXM1)
T1 sequence: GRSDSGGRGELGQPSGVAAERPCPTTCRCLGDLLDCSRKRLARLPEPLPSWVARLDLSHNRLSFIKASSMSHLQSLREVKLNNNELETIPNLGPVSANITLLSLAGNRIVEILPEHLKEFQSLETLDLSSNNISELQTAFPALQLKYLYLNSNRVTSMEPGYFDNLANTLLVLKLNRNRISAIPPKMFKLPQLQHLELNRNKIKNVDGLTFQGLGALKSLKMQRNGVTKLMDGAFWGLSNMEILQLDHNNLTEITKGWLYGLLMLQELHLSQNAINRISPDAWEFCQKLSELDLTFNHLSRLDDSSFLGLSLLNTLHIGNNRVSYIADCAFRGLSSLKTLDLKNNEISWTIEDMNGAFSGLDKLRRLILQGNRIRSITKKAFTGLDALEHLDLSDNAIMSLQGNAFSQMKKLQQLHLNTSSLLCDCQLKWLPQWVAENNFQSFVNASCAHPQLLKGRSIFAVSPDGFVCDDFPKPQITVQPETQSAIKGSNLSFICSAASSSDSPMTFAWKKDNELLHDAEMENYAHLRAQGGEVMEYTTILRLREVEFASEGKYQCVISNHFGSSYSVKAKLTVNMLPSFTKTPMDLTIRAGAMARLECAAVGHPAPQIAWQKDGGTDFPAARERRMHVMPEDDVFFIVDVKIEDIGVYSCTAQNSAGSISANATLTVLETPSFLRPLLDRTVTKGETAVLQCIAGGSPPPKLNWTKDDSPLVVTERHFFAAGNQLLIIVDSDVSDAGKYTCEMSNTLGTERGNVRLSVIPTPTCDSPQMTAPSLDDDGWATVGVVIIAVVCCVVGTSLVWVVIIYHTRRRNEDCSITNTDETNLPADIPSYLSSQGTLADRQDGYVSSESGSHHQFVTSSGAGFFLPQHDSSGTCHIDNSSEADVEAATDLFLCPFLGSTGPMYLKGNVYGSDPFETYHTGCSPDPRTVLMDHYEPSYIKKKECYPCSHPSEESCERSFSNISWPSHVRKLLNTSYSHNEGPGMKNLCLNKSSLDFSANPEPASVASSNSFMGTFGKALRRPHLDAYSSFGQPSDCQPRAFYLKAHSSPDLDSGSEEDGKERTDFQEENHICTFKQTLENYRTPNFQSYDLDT
Experiment: co-IP; lysates of HEK293T co-transfected with pLVX-FLAG-LRIG3 and pcDNA3.1-His-NETO2 (full length or deletion mutants); precipitation with the FLAG-specific antibody and protein A/G, 4 °C, 12 h; normal mouse IgG or empty vector as control

binding: binds
B1: His-NETO2-FL (protein, UniProt Q8BNJ6 23-525)
chain: IAVAQKTQDGQNIGIKHIPATQCGIWVRTSNGGHFASPNYPDSYPPNKECIYILEAAPRQRIELTFDERYYIEPSFECRFDHLEIRDGPFGFSPLIDRYCGMKSPALIRSTGRFMWIKFSSDEELEGLGFRAKYSFIPDPDFTYLGGILNPIPDCQFELSGADGIVRSSQVEQEEKTKPGQAVDCIWTIKATPKAKIYLRFLDYQMEHSNECKRNFVAVYDGSSAIENLKAKFCSTVANDVMLKTGVGVIRMWADEGSRLSRFRMLFTSFVEPPCTSSTFFCHSNMCINNSLVCNGVQNCAYPWDENHCKEKKKAGLFEQITKTHGTIIGITSGIVLVLLIISILVQVKQPRKKVMACKTAFNKTGFQEVFDPPHYELFSLREKEISADLADLSEELDNYQKLRRSSTASRCIHDHHCGSQASSVKQSRTNLSSMELPFRNDFAQPQPMKTFNSTFKKSSYTFKQAHECPEQALEDRVMEEIPCEIYVRGRDDSAQASISIDF
